The other results are listed elsewhere or left out.
Compound: C[C@@H]1COCCN1C2=NC(=NC(=C2)C3(CC3)S(=O)(=O)C)C4=C5C=CNC5=CC=C4
Assay: log2 fold change, soluble protein after heating vs DMSO (PISA); higher = thermal stabilisation; K562 cells, 10 uM, 30 min; active = over 0.2 and 3.5 SD of the protein, either way, in both replicates (recomputed)
In short: (§1)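 K562 cells at 2×10^6 cells/mL were treated with 10 μM compound for 30 min. Aliquots were heated for 3 min across 48°C-58°C, pooled, and extracted in PBS with 0.5% NP-40 at 4°C; soluble protein was the supernatant after 21,000xg for 90 min. Soluble protein was quantified by TMTpro 16plex LC-MS/MS with channel sums equalised, and reported as log2 fold change in thermal stability against DMSO controls, with values from duplicates.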

Chains of the proteins cited; added tags and fusions are not shown. Lines headed by an entry give the natural chain unless they say otherwise; changes in a name come on top.
UniProt Q9NY12: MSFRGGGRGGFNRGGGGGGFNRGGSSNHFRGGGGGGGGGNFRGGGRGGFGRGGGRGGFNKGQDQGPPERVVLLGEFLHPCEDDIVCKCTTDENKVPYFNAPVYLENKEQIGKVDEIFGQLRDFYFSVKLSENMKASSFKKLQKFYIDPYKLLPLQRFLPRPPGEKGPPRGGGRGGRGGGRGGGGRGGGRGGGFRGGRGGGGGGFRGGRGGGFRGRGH
UniProt P51114, whole entry, looked up: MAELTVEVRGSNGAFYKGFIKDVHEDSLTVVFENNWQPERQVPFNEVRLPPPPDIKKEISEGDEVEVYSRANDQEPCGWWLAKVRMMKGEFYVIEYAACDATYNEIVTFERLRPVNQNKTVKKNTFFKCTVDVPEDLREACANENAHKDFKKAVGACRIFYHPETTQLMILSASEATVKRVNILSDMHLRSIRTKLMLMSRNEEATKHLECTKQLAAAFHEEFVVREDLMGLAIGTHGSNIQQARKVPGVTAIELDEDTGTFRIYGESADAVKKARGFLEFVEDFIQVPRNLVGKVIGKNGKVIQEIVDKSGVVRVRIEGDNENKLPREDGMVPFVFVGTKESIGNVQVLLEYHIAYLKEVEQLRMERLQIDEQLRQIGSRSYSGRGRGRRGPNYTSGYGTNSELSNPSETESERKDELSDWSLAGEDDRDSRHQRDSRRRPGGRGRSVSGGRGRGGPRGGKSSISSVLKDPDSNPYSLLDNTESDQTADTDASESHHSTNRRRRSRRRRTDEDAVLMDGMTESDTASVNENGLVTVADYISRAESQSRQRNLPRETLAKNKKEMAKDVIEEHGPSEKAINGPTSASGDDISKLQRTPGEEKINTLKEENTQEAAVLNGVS
UniProt Q9BQS8: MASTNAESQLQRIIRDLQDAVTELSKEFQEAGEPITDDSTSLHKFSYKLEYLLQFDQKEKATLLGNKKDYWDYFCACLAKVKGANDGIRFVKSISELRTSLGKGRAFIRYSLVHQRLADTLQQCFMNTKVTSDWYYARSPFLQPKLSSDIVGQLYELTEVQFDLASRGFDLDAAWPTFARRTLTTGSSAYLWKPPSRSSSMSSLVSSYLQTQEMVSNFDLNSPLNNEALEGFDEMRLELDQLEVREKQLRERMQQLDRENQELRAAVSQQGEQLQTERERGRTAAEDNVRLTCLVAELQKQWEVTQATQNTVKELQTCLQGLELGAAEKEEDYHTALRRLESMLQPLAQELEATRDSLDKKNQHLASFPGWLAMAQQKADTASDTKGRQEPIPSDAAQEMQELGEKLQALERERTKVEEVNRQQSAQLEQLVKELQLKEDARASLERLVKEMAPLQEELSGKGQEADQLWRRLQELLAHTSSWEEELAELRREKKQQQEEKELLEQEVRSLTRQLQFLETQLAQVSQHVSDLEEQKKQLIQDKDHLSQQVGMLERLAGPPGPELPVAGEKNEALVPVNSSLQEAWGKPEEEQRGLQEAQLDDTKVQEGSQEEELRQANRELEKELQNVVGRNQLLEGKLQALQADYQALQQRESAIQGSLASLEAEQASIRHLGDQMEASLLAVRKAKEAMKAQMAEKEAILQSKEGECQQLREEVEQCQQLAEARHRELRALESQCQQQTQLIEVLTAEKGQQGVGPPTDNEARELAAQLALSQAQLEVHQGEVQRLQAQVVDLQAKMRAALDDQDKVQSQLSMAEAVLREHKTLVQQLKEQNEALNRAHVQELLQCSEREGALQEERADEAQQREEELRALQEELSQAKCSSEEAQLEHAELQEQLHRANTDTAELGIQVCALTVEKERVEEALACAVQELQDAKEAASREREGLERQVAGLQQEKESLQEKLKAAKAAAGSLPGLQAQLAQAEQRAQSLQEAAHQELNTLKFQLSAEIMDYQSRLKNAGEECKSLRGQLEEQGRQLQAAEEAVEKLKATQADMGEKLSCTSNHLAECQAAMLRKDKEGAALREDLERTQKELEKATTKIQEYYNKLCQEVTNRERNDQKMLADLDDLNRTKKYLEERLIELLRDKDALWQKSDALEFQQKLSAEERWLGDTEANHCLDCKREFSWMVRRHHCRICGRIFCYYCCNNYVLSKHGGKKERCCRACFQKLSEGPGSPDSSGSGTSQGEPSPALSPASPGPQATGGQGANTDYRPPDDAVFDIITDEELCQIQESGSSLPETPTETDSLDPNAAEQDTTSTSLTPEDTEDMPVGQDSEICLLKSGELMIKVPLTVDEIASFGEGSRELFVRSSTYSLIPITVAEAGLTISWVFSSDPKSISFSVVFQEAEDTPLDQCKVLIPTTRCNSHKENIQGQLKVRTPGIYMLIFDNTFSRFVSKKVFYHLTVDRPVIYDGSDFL
UniProt Q9UN86: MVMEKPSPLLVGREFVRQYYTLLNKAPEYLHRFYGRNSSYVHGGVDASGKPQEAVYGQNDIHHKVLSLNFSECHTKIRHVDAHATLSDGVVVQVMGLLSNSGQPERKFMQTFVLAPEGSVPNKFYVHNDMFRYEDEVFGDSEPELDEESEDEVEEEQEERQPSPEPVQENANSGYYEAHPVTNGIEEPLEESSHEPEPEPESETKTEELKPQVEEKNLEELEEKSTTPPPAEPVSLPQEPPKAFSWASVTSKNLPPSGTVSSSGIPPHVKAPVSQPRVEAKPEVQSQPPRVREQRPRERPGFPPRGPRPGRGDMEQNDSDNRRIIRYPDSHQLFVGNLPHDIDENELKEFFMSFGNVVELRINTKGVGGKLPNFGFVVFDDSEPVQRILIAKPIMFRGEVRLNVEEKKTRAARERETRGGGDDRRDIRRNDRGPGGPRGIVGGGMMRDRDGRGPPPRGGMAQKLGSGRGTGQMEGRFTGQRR
UniProt Q86SF2: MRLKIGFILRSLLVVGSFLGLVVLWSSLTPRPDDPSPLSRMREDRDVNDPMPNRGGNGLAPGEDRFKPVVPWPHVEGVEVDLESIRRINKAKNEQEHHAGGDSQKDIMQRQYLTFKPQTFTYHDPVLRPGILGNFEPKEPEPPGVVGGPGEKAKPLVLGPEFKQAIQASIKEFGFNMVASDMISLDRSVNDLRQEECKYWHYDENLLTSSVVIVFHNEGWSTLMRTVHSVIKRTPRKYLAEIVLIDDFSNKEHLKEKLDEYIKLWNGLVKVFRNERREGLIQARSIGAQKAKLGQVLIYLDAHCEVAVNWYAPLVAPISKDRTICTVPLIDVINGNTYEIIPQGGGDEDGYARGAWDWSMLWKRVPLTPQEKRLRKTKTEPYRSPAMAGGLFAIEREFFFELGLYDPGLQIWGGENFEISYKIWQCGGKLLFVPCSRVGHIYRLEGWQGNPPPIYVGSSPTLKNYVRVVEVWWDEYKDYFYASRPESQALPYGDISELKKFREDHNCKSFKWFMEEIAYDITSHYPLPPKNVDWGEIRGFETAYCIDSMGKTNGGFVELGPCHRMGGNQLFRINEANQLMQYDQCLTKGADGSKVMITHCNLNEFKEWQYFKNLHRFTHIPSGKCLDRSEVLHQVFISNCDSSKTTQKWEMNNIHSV
UniProt Q9NZ52: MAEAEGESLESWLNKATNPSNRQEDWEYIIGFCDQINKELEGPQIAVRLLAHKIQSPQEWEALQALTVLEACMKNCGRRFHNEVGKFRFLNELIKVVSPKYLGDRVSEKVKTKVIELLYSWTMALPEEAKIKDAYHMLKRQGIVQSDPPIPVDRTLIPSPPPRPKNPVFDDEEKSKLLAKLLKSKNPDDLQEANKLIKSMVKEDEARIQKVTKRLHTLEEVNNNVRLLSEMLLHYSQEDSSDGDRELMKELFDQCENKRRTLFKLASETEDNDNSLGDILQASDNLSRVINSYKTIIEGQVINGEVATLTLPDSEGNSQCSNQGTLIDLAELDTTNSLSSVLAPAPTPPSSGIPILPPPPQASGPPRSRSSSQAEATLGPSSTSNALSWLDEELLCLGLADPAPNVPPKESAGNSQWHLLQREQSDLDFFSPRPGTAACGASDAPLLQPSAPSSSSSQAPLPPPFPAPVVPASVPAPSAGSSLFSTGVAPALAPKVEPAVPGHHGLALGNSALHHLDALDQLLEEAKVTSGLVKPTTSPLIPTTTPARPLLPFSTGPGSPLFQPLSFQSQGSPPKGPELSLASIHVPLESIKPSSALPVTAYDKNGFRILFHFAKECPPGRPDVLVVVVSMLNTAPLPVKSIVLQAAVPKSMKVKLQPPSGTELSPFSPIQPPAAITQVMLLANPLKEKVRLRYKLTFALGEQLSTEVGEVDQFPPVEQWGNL
UniProt Q01415: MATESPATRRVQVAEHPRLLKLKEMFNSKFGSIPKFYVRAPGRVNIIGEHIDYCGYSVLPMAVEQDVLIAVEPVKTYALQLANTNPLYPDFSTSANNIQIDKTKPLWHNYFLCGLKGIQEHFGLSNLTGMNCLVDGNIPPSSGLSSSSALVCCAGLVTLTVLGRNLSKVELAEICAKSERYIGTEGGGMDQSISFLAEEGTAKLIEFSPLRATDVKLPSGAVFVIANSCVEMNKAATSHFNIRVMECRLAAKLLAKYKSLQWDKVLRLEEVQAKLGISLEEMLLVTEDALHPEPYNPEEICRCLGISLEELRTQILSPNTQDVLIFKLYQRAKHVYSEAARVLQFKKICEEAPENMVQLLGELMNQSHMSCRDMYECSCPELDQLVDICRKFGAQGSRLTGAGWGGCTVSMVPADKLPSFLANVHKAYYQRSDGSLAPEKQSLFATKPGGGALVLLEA
UniProt P51116, whole entry, looked up: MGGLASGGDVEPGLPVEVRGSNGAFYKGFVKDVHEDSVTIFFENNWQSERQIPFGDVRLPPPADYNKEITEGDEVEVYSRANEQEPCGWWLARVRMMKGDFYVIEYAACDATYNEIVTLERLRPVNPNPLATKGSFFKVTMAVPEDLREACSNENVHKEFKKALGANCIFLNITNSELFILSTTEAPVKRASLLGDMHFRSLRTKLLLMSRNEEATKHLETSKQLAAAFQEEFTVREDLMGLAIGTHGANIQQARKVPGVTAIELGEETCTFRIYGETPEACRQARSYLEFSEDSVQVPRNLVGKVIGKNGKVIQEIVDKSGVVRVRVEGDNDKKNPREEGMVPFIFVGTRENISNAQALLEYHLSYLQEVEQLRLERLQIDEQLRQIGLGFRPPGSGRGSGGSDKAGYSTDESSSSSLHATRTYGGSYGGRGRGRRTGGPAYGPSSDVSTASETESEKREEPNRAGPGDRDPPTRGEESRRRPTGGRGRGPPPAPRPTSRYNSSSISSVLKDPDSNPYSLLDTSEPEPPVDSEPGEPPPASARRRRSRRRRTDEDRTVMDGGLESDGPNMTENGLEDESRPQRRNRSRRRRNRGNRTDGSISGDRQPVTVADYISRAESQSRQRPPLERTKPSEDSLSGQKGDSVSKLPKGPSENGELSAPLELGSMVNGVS
UniProt Q9UET6: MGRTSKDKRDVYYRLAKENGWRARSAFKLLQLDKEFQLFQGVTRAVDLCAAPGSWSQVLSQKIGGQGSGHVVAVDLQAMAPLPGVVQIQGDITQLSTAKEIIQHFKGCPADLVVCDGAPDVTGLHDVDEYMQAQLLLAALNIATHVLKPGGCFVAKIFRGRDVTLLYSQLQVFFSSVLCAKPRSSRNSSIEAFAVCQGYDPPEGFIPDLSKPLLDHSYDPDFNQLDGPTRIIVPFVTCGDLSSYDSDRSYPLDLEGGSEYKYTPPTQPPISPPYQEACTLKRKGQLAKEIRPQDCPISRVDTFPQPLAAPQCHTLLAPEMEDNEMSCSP
UniProt Q8IXK2: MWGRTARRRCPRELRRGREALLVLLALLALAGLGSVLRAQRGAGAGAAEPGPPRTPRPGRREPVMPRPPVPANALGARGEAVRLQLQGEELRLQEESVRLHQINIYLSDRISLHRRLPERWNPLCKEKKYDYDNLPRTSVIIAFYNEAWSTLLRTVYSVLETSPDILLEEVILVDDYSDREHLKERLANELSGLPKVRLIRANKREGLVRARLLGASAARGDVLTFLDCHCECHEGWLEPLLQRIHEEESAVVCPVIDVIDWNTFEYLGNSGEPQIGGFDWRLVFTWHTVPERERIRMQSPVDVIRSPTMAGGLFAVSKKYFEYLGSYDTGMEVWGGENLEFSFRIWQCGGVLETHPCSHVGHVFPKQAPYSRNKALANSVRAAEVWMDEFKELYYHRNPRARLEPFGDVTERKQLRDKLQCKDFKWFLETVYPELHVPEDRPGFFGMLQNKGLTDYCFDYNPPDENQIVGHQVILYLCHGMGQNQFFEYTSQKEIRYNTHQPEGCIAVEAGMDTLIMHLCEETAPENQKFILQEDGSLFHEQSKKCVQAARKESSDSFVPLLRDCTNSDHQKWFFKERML
UniProt Q96C23: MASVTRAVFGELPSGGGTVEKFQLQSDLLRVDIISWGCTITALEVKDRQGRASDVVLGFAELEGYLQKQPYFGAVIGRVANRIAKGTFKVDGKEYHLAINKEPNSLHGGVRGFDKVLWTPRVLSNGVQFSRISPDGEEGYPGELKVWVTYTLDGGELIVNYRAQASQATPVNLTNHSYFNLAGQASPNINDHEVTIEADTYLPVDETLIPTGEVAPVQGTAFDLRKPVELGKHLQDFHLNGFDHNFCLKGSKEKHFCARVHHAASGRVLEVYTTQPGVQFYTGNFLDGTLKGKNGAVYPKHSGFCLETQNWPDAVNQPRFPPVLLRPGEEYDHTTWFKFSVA

log2 fold change, inactive:
GCAT isoform 2 (UniProt O75600) 0.089, GAR1 (UniProt Q9NY12) -0.263, GATAD2A isoform 3 (UniProt Q86YP4) 0.053, FXR1 (UniProt P51114) -0.463, FYCO1 isoform 4 (UniProt Q9BQS8) -0.035, G3BP2 (UniProt Q9UN86) -0.401, GALNT7 (UniProt Q86SF2) 0.017, GAN (UniProt Q9H2C0) 0.046, FRG1 (UniProt Q14331) -0.11, GGA3 (UniProt Q9NZ52) 0.058, GCHFR (UniProt P30047) 0.047, FUS (UniProt P35637) -0.128, GALK2 (UniProt Q01415) 0.055, GAMT (UniProt Q14353) 0.16, FTH1 (UniProt P02794) -0.113, GCLC (UniProt P48506) 0.102, FUBP1 (UniProt Q96AE4) -0.071, GAGE2A (UniProt Q6NT46) 0.16, FXR2 (UniProt P51116) -0.127, G3BP1 (UniProt Q13283) -0.389, GEMIN4 (UniProt P57678) -0.278, GGCT (UniProt O75223) 0.033, FTSJ1 (UniProt Q9UET6) 0.061, GALNT12 (UniProt Q8IXK2) 0.015, GALNT5 (UniProt Q7Z7M9) 0.024, GANAB isoform 2 (UniProt Q14697) -0.047, GGA1 isoform 6 (UniProt Q9UJY5) -0.064, GGH (UniProt Q92820) -0.021, GALE (UniProt Q14376) 0.091, GALNS (UniProt P34059) 0.119, GHITM (UniProt Q9H3K2) 0.034, G6PD isoform 2 (UniProt P11413) 0.109, GALM (UniProt Q96C23) 0.114, GFM1 (UniProt Q96RP9) 0.117

Compound: C[C@H](C1=CC=C(C=C1)C(=O)NC2=C3C=CNC3=NC=C2)N
Assay: as above
In short: as §1

log2 fold change, inactive:
GCAT isoform 2 (UniProt O75600) -0.054, GAR1 (UniProt Q9NY12) 0.27, GATAD2A isoform 3 (UniProt Q86YP4) 0.013, FXR1 (UniProt P51114) 0.407, FYCO1 isoform 4 (UniProt Q9BQS8) 0.092, G3BP2 (UniProt Q9UN86) 0.23, GALNT7 (UniProt Q86SF2) -0.049, GAN (UniProt Q9H2C0) -0.045, FRG1 (UniProt Q14331) 0.151, GGA3 (UniProt Q9NZ52) -0.031, GCHFR (UniProt P30047) 0.032, FUS (UniProt P35637) 0.112, GALK2 (UniProt Q01415) -0.03, GAMT (UniProt Q14353) -0.062, FTH1 (UniProt P02794) 0.104, GCLC (UniProt P48506) 0.013, FUBP1 (UniProt Q96AE4) 0.029, GAGE2A (UniProt Q6NT46) 0.139, FXR2 (UniProt P51116) 0.446, G3BP1 (UniProt Q13283) 0.184, GEMIN4 (UniProt P57678) 0.588, GGCT (UniProt O75223) -0.091, FTSJ1 (UniProt Q9UET6) 0.026, GALNT12 (UniProt Q8IXK2) 0.035, GALNT5 (UniProt Q7Z7M9) -0.048, GANAB isoform 2 (UniProt Q14697) 0.111, GGA1 isoform 6 (UniProt Q9UJY5) -0.052, GGH (UniProt Q92820) -0.023, GALE (UniProt Q14376) -0.041, GALNS (UniProt P34059) -0.057, GHITM (UniProt Q9H3K2) -0.083, G6PD isoform 2 (UniProt P11413) -0.086, GALM (UniProt Q96C23) -0.022, GFM1 (UniProt Q96RP9) -0.017

Compound: C[C@H](Nc1ncnc2nc[nH]c12)c1cc2cccc(Cl)c2c(=O)n1-c1ccccc1 [duvelisib]
Assay: as above
In short: as §1

log2 fold change, inactive:
GCAT isoform 2 (UniProt O75600) -0.043, GAR1 (UniProt Q9NY12) -0.114, GATAD2A isoform 3 (UniProt Q86YP4) -0.031, FXR1 (UniProt P51114) -0.091, FYCO1 isoform 4 (UniProt Q9BQS8) 0.073, G3BP2 (UniProt Q9UN86) -0.126, GALNT7 (UniProt Q86SF2) 0.021, GAN (UniProt Q9H2C0) 0.05, FRG1 (UniProt Q14331) -0.076, GGA3 (UniProt Q9NZ52) 0.044, GCHFR (UniProt P30047) 0.21, FUS (UniProt P35637) -0.039, GALK2 (UniProt Q01415) 0.065, GAMT (UniProt Q14353) 0.036, FTH1 (UniProt P02794) -0.024, GCLC (UniProt P48506) 0.041, FUBP1 (UniProt Q96AE4) 0.062, GAGE2A (UniProt Q6NT46) 0.097, FXR2 (UniProt P51116) -0.207, G3BP1 (UniProt Q13283) -0.09, GEMIN4 (UniProt P57678) -0.281, GGCT (UniProt O75223) 0.051, FTSJ1 (UniProt Q9UET6) 0.106, GALNT12 (UniProt Q8IXK2) -0.024, GALNT5 (UniProt Q7Z7M9) 0.031, GANAB isoform 2 (UniProt Q14697) -0.057, GGA1 isoform 6 (UniProt Q9UJY5) 0.013, GGH (UniProt Q92820) -0.007, GALE (UniProt Q14376) 0.036, GALNS (UniProt P34059) 0.087, GHITM (UniProt Q9H3K2) -0.002, G6PD isoform 2 (UniProt P11413) 0.017, GALM (UniProt Q96C23) 0.001, GFM1 (UniProt Q96RP9) 0.047
